The list shows a part of the results. Many values rest on one well or one pass, so single values are uncertain.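 The apoptosis fraction was the count of cleaved-PARP antibody-stained nuclei relative to all DNA-stained nuclei, imaged in 1,536-well plates. Screening doses were set so most cells survived, and baseline and induced cleaved-PARP levels vary greatly across cell lines.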

The subject of one experiment is IPC-298. Nature of the experiment: cleaved PARP positive nuclei fraction relative to DMSO control; melanoma cells; higher = more apoptosis. The settings on record: library dose: low library concentration; 72 h.
Regarding `Cn1c(=O)n(-c2ccc(C(C)(C)C#N)cc2)c2c3cc(-c4cnc5ccccc5c4)ccc3ncc21` + NC(=O)Nc1cc(-c2cccc(F)c2)sc1C(=O)N[C@H]1CCCNC1 [AZD7762] (first compound 0.004 µM, partner dose 0.02 µM), the “cleaved PARP positive nuclei fraction” value turned out to be 90.3%.
Still for that read-out and setting: for `CC(C)C[C@H](NC(=O)[C@H](Cc1ccccc1)NC(=O)c1cnccn1)B(O)O` [Bortezomib] + O=C(O)c1ccc(-c2c[nH]c3ncc(-c4ccccc4)cc23)cc1C1CCCC1 [GSK650394] (first compound 0.001 µM, partner dose 0.16 µM) the value was 245%.
As for `C[C@@H](Oc1cc(-c2cnn(C3CCNCC3)c2)cnc1N)c1c(Cl)ccc(F)c1Cl` [Crizotinib] + C[C@@H]1CCN(C(=O)CC#N)C[C@@H]1N(C)c1ncnc2[nH]ccc12 [CP690550] (first compound 0.2 µM, partner dose 1 µM), the “cleaved PARP positive nuclei fraction” value was 172%.
The same measure, in the same setting: for `CC(C)C[C@H](NC(=O)[C@H](Cc1ccccc1)NC(=O)c1cnccn1)B(O)O` [Bortezomib] + Cc1cc(N2CCOCC2)cc2[nH]c(-c3c(NC[C@@H](O)c4cccc(Cl)c4)cc[nH]c3=O)nc12 [BMS536924] (first compound 0.001 µM, partner dose 0.2 µM) the value was 63.1%.
Still for that read-out and setting: to `Nc1ccn([C@@H]2O[C@H](CO)[C@@H](O)C2(F)F)c(=O)n1` [gemcitabine] + CC(C)(C)c1cnc(CSc2cnc(NC(=O)C3CCNCC3)s2)o1 [SNS-032] (first compound 0.0004 µM, partner dose 0.01 µM) belongs 95.9%.
Regarding `CCCS(=O)(=O)Nc1ccc(F)c(C(=O)c2c[nH]c3ncc(Cl)cc23)c1F` + C=CCn1c(=O)c2cnc(Nc3ccc(N4CCN(C)CC4)cc3)nc2n1-c1cccc(C(C)(C)O)n1 [MK1775] (first compound 0.08 µM, partner dose 0.02 µM), the “cleaved PARP positive nuclei fraction” value was 108%.
On the same count and under the same terms, to `Nc1ccn([C@@H]2O[C@H](CO)[C@@H](O)C2(F)F)c(=O)n1` [gemcitabine] + CC1(C)NC(=O)N(c2ccc([N+](=O)[O-])c(C(F)(F)F)c2)C1=O [nilutamide] (first compound 0.0004 µM, partner dose 1 µM) belongs 49.7%; to `CC(C)C[C@H](NC(=O)[C@H](Cc1ccccc1)NC(=O)c1cnccn1)B(O)O` [Bortezomib] + Cc1ccc(NC(=O)c2cccc(N(C)C)c2)cc1NC(=O)c1ccc(O)cc1 [ZM336372] (first compound 0.001 µM, partner dose 2 µM), 134%.
The same measure, in the same setting: for `CCCS(=O)(=O)Nc1ccc(F)c(C(=O)c2c[nH]c3ncc(Cl)cc23)c1F` + CN(NC(=O)CC(=O)NN(C)C(=S)c1ccccc1)C(=S)c1ccccc1 [STA4783] (first compound 0.08 µM, partner dose 0.006 µM) the value was 103%.
The same measure, in the same setting: to `O=C(O)[C@@H]1[O][Sb](=[O])([O][Sb]2(=[O])[O][C@H]([C@H](O)CO)[C@H](O)[C@H](C(=O)O)[O]2)[O][C@H]([C@H](O)CO)[C@@H]1O` (stereo not given in full) [stibogluconate] + C[C@@H]1CCN(C(=O)CC#N)C[C@@H]1N(C)c1ncnc2[nH]ccc12 [CP690550] (first compound 2 µM, partner dose 1 µM) belongs 57.2%; to `C=C(c1ccc(C(=O)O)cc1)c1cc2c(cc1C)C(C)(C)CCC2(C)C` [Bexarotene] + Cc1ccc(NC(=O)c2cccc(N(C)C)c2)cc1NC(=O)c1ccc(O)cc1 [ZM336372] (first compound 2 µM, partner dose 2 µM), 74.4%; to `Cc1cc(Nc2cc(N3CCN(C)CC3)nc(/C=C/c3ccccc3)n2)n[nH]1` + CO[C@@H]1[C@H](N(C)C(=O)c2ccccc2)C[C@H]2O[C@]1(C)n1c3ccccc3c3c4c(c5c6ccccc6n2c5c31)C(=O)NC4 [Midostaurin] (first compound 0.04 µM, partner dose 0.08 µM), 31.8%.

In the next experiment the test system is IST-MEL1. The experiment is described as above. The settings on record: library dose: low library concentration; 72 h.
On to `Nc1ncn([C@H]2C[C@H](O)[C@@H](CO)O2)c(=O)n1` [decitabine] + Cc1cc(N2CCOCC2)cc2[nH]c(-c3c(NC[C@@H](O)c4cccc(Cl)c4)cc[nH]c3=O)nc12 [BMS536924] (first compound 0.1 µM, partner dose 0.2 µM), for which the “cleaved PARP positive nuclei fraction” value came to 33.7%.
The same measure, in the same setting: to `Cn1c(=O)n(-c2ccc(C(C)(C)C#N)cc2)c2c3cc(-c4cnc5ccccc5c4)ccc3ncc21` + NCC(=O)Nc1ccc(-n2nc(C(F)(F)F)cc2-c2ccc3c(ccc4ccccc43)c2)cc1 [OSU03012] (first compound 0.004 µM, partner dose 1 µM) belongs 113%.
Same read-out and setting: for `CS(=O)(=O)CCNCc1ccc(-c2ccc3ncnc(Nc4ccc(OCc5cccc(F)c5)c(Cl)c4)c3c2)o1` [lapatinib] + O=C(Nc1cccc(Cl)c1)Nc1ncc(CCNc2ncnc3ccsc23)s1 [SNS314] (first compound 0.8 µM, partner dose 0.0008 µM) the value was 60.3%.
The same measure, in the same setting: for `CN1CCN(c2ccc3nc(-c4c(N)c5c(F)cccc5[nH]c4=O)[nH]c3c2)CC1` [Dovitinib] + CN(C)S(=O)(=O)c1ccc2c(c1)/C(=C/c1cc3c([nH]1)CCCC3)C(=O)N2 [SU6656] (first compound 0.1 µM, partner dose 0.4 µM) the value was 178%; for `C[C@@H](Oc1cc(-c2cnn(C3CCNCC3)c2)cnc1N)c1c(Cl)ccc(F)c1Cl` [Crizotinib] + Cn1cncc1[C@@](N)(c1ccc(Cl)cc1)c1ccc2c(c1)c(-c1cccc(Cl)c1)cc(=O)n2C [tipifarnib] (first compound 0.2 µM, partner dose 0.01 µM), 107%; for `CO[C@H]1C[C@@H]2CC[C@@H](C)[C@@](O)(O2)C(=O)C(=O)N2CCCC[C@H]2C(=O)O[C@H]([C@H](C)C[C@@H]2CC[C@@H](OCCO)[C@H](OC)C2)CC(=O)[C@H](C)/C=C(\C)[C@@H](O)[C@@H](OC)C(=O)[C@H](C)C[C@H](C)/C=C/C=C/C=C/1C` [everolimus] + O=C(Nc1cccc(Cl)c1)Nc1ncc(CCNc2ncnc3ccsc23)s1 [SNS314] (first compound 0.02 µM, partner dose 0.0008 µM), 153%.
In the case of `O=C(O)c1ccc2c(c1)nc(Nc1cccc(Cl)c1)c1ccncc12` + NC(=O)Nc1cc(-c2cccc(F)c2)sc1C(=O)N[C@H]1CCCNC1 [AZD7762] (first compound 0.4 µM, partner dose 0.02 µM), the “cleaved PARP positive nuclei fraction” value amounted to 94.2%.
On the same count and under the same terms, for `Cn1c(=O)n(-c2ccc(C(C)(C)C#N)cc2)c2c3cc(-c4cnc5ccccc5c4)ccc3ncc21` + O=C(O)c1ccc(-c2c[nH]c3ncc(-c4ccccc4)cc23)cc1C1CCCC1 [GSK650394] (first compound 0.004 µM, partner dose 0.16 µM) the value was 90.9%; for `O=C(O)c1ccc2c(c1)nc(Nc1cccc(Cl)c1)c1ccncc12` + O=C(O)c1ccc(-c2c[nH]c3ncc(-c4ccccc4)cc23)cc1C1CCCC1 [GSK650394] (first compound 0.4 µM, partner dose 0.16 µM), 69.1%.
The same measure, in the same setting: to `CC(C)C[C@H](NC(=O)[C@H](Cc1ccccc1)NC(=O)c1cnccn1)B(O)O` [Bortezomib] + O=C(CCCCCCC(=O)Nc1ccccc1)NO [vorinostat] (first compound 0.001 µM, partner dose 0.08 µM) belongs 116%; to `O=C(O)c1ccc2c(c1)nc(Nc1cccc(Cl)c1)c1ccncc12` + O=C(Nc1cccc(Cl)c1)Nc1ncc(CCNc2ncnc3ccsc23)s1 [SNS314] (first compound 0.4 µM, partner dose 0.0008 µM), 140%.
On the same count and under the same terms, for `Nc1nc(F)nc2c1ncn2[C@@H]1O[C@H](CO)[C@@H](O)[C@@H]1O` [fludarabine] + C=CCn1c(=O)c2cnc(Nc3ccc(N4CCN(C)CC4)cc3)nc2n1-c1cccc(C(C)(C)O)n1 [MK1775] (first compound 0.2 µM, partner dose 0.02 µM) the value was 40%; for `Nc1ccn([C@@H]2O[C@H](CO)[C@@H](O)C2(F)F)c(=O)n1` [gemcitabine] + COc1cc(Nc2ncc(F)c(Nc3ccc4c(n3)NC(=O)C(C)(C)O4)n2)cc(OC)c1OC [Tamatinib] (first compound 0.0004 µM, partner dose 0.4 µM), 45.9%.
Take `Cn1c(=O)n(-c2ccc(C(C)(C)C#N)cc2)c2c3cc(-c4cnc5ccccc5c4)ccc3ncc21` + COc1cc2c(Oc3ccc4[nH]c(C)cc4c3F)ncnc2cc1OCCCN1CCCC1 [cediranib] (first compound 0.004 µM, partner dose 0.4 µM): the “cleaved PARP positive nuclei fraction” value worked out at 35.6%.
Same read-out and setting: to `Cc1cc(Nc2cc(N3CCN(C)CC3)nc(/C=C/c3ccccc3)n2)n[nH]1` + NC(=O)Nc1cc(-c2cccc(F)c2)sc1C(=O)N[C@H]1CCCNC1 [AZD7762] (first compound 0.04 µM, partner dose 0.02 µM) belongs 126%.
In the case of `Nc1nc(F)nc2c1ncn2[C@@H]1O[C@H](CO)[C@@H](O)[C@@H]1O` [fludarabine] + O=C(Nc1cccc(Cl)c1)Nc1ncc(CCNc2ncnc3ccsc23)s1 [SNS314] (first compound 0.2 µM, partner dose 0.0008 µM), the “cleaved PARP positive nuclei fraction” value was determined as 225%.
The same measure, in the same setting: for `CS(=O)(=O)CCNCc1ccc(-c2ccc3ncnc(Nc4ccc(OCc5cccc(F)c5)c(Cl)c4)c3c2)o1` [lapatinib] + CN(NC(=O)CC(=O)NN(C)C(=S)c1ccccc1)C(=S)c1ccccc1 [STA4783] (first compound 0.8 µM, partner dose 0.006 µM) the value was 177%; for `CC(C)C[C@H](NC(=O)[C@H](Cc1ccccc1)NC(=O)c1cnccn1)B(O)O` [Bortezomib] + CO[C@@H]1[C@H](N(C)C(=O)c2ccccc2)C[C@H]2O[C@]1(C)n1c3ccccc3c3c4c(c5c6ccccc6n2c5c31)C(=O)NC4 [Midostaurin] (first compound 0.001 µM, partner dose 0.08 µM), 312%.

(Values after the supplement of paper PMC4604168 (melanoma cell lines).)
